Data taken from PubChem BioAssay AID504444 (National Center for Advancing Translational Sciences (NCATS), 2011).
“And” between values parts separate entries of the source, which are not always exact repeats. Equal values may be shown once. Out of some 360,000 compounds screened, about 7,500 (2.1%) were called active. This list was built around the results that the source calls inconclusive (neither active nor inactive); the mix of calls is not that of the screen. Calls follow the shape of the dose curve; as a rule, active = well fitted inhibition curve with a large enough effect; inconclusive = small, poorly fitted or top-dose-only effect, or effect the other way; inactive = flat fitted curve, though single readings scatter. A potency beside an inconclusive call is a rough fit, not a confirmed value.

Test: Nrf2 qHTS screen for inhibitors; also: nearly all actives have a fitted effect of over 60% in size
Conditions: A549 ARE-Fluc reporter, luciferase luminescence, 18-24 h; activity change, negative = inhibition: at 46 µM (top of the series)
Summary of the method: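 Reporter: ARE-Fluc in A549. Exposure: 18-24 h, 37 °C, 5% CO2, 5% FBS OPTI-MEM. Readouts: fluorescent cytotoxicity (CellTiter-Fluor), then luminescent Nrf2 signal after BugLite.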
% is scaled to controls: 0 for no effect and ±100 for the full control effect; potency is read from the fitted curve at half-maximal effect.

SMILES	activity change, negative = inhibition	Potency
Cc1sc2ncn(CCC(=O)O)c(=O)c2c1C	inactive: 5.76%	–
Cc1ccc(NC(=O)N(Cc2c[nH]c3ccccc23)C2CCCCCC2)cc1C	–	inconclusive: 14.6 µM [activator, partial curve]
CC(CNC(=O)c1cc(COc2c(F)cccc2F)on1)Oc1cccnc1 (stereo not given)	–	inconclusive: 29.1 µM [falling, single point]
CCCc1cc(C(=O)Cc2ccccn2)c(O)cc1O	–	inconclusive: 29.1 µM [falling, single point]
Cc1cc(F)ccc1S(=O)(=O)N1CCC2(CC1)OCCN2S(=O)(=O)c1cccs1	–	active: 11.6 µM
Nc1ncc(Br)cc1S(=O)(=O)N1CCCCCC1	–	inconclusive: 25.9 µM [falling, partial curve, poor fit]
CCCOc1ccc2cc(-c3ccccn3)c(=O)oc2c1	–	inconclusive: 0.517 µM [activator, full curve]
CC(C)(C)c1ccc(/C=N/Nc2ccc(C(=O)O)cc2)cc1	–	inconclusive: 0.164 µM [activator, full curve]
COc1cccc(C(=O)NN/C(C)=C/C(=O)C(F)(F)C(F)(F)C(F)(F)F)c1	inactive: -14.5%	–
O=C(Nc1nc(-c2ccc3c(c2)OCCO3)cs1)c1ccc(S(=O)(=O)N2CCCCC2)cc1	–	inconclusive: 11.6 µM [falling, partial curve, poor fit]
CCN(CC(=O)Nc1cccc(S(=O)(=O)N2CCCC2)c1)CC(=O)Nc1ccccc1OC	–	inconclusive: 20.6 µM [falling, partial curve]
O=C(NCCC1=CCCCC1)c1coc(=O)c(Br)c1	–	inconclusive: 29.1 µM [activator, single point]
N#Cc1nc(N2CCCCC2)nc(N2CCOCC2)n1	–	inconclusive: 16.4 µM [falling, single point] and inconclusive: 29.1 µM [falling, single point]
COc1ccc(-c2n(Cc3ccccc3)c3ccccc3[n+]2Cc2ccccc2)cc1	–	inconclusive: 11.6 µM [falling, partial curve]
COc1cccc(-c2csc(N3CCN(C(=O)C4CCCCC4)CC3)n2)c1	–	inconclusive: 23.1 µM [falling, single point]
CCCCn1c(N)c(N(CCC(C)C)C(=O)COC(=O)c2ccccc2)c(=O)[nH]c1=O	–	inconclusive: 5.8 µM [falling, partial curve]
CC(=O)N1CCN(c2nc(-c3cccs3)nc3ccccc23)CC1	–	inconclusive: 14.6 µM [falling, partial curve, poor fit]
CSc1ccc(CCNC(=O)CN2C(=O)COc3ccc(S(=O)(=O)N4CCCC4)cc32)cc1	inactive: -84.1%	–
CCN(CC)CCNC(=O)c1ccc(NC(=O)c2cn(-c3ccccc3)nc2-c2cccs2)cc1	inactive: -3.78%	–
CCOc1ccc(NC(=O)c2cnn3c2NC(c2ccccc2)=CC3c2cccc(OC)c2OC)cc1 (stereo not given)	inactive: 7.48%	–

Record cards, as listed above. Order of values: activity change, negative = inhibition | Potency
`COc1cccc(-c2csc(N3CCN(C(=O)C4CCCCC4)CC3)n2)c1` is entered as – | inconclusive: 23.1 µM [falling, single point]
`CCCc1cc(C(=O)Cc2ccccn2)c(O)cc1O` is entered as – | inconclusive: 29.1 µM [falling, single point]

More entries.

SMILES	activity change, negative = inhibition	Potency
CC1=C(C(N)=O)C(c2cccc(OCc3ccccc3)c2)n2nnnc2N1 (stereo not given)	–	inconclusive: 0.116 µM [falling, full curve, poor fit]
COc1ccc(N(C)C(=O)c2ccc3c(Cl)c4c(nc3c2)CCCC4)c(OC)c1	–	inconclusive: 29.1 µM [falling, single point]
O=C(CSc1ccccc1)N1CCN(S(=O)(=O)c2ccccc2F)CC1	–	inconclusive: 16.4 µM [activator, single point]
O=S(=O)(c1ccc2c(c1)C(=NO)c1cc(S(=O)(=O)N3CCCCC3)ccc1-2)N1CCCCC1	–	inconclusive: 18.4 µM [falling, partial curve, poor fit]
Cn1cccc1-c1nc2ccc(NC(=O)c3ccc([N+](=O)[O-])cc3)cc2[nH]1	–	inconclusive: 5.17 µM [falling, single point]
Cc1ccccc1NC(=O)c1cc2ccccc2o1	–	inconclusive: 5.17 µM [activator, partial curve]
NC(=NC(=O)c1ccccc1)N1CCN(C(c2ccccc2)c2ccccc2)CC1	–	inconclusive: 32.6 µM [activator, single point]
Cc1ccc2[nH]c(=O)c3cc(C(=O)NC(C)C)sc3c2c1	–	inconclusive: 13 µM [falling, partial curve, poor fit]
CCc1ccc(NS(=O)(=O)c2ccc3c(c2)oc(=O)n3C)cc1	–	inconclusive: 25.9 µM [falling, partial curve]
O=C(Nc1ccc(F)cc1)c1cc(S(=O)(=O)N2CCCCC2)ccc1F	inactive: -3.07%	–
COC(=O)[C@H]1[C@@H](C)N(Cc2ccccc2)C(=O)N[C@H]1c1cccc(C(F)(F)F)c1	–	inconclusive: 20.6 µM [falling, single point]
O=C(CN1CCN(c2ccccn2)CC1)Nc1ccc(OCc2ccccc2)cc1	–	active: 20.6 µM
Cc1ccc(C(=O)NNC(=S)NC(=O)c2ccccc2)cc1	–	active: 16.4 µM
O=C(COC(=O)/C=C/c1cn(-c2ccccc2)nc1-c1cccnc1)Nc1ccc(Cl)cc1Cl	–	inconclusive: 32.6 µM [falling, single point]
CN(c1ccc(OCC(=O)Nc2ccccc2C(=O)O)cc1)S(=O)(=O)c1ccc(Cl)cc1	–	inconclusive: 29.1 µM [activator, single point]
CCO[C@@H]1OC(C(=O)NCc2ccccc2)=C[C@H](c2coc3ccccc3c2=O)[C@H]1CCCO	–	inconclusive: 13 µM [falling, partial curve, poor fit]
COc1ccc2oc(C(=O)OCC(=O)Nc3ccc(N4CCOCC4)cc3)c(C)c2c1	inactive: 4.57%	–
CCOC(=O)c1ccc(S(=O)(=O)N2CCN(Cc3cc4c(cc3O)OCO4)CC2)cc1	–	inconclusive: 10.3 µM [falling, partial curve, poor fit]
CC(=O)N(C)c1ccc(OCC(O)CN(c2ccccc2C)S(=O)(=O)c2ccc(C)cc2)cc1 (stereo not given)	–	inconclusive: 29.1 µM [falling, single point]
COc1ccc([C@H]2CC(=O)C=C(/C=C/c3ccccc3)C2)cc1	–	inconclusive: 23.1 µM [activator, single point]
